{"source": "PubChem BioAssay AID686937 (Drosophila RNAi Screening Center, 2013)", "screen": "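Genes in the fly needed for secretion of protein constitutively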 (primary screen)", "cells": "Drosophila S2 cells expressing secreted horseradish peroxidase", "reagents": "long dsRNA against Drosophila genes", "timing": "about 5.5 days (5 days dsRNA, then 12 h reporter induction)", "treatment": "reporter expression induced after 5 days of dsRNA, read 12 h later; inducer not stated", "measured": "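Chemiluminescent measurement of peroxidase in the medium 12 h after reporter induction, following 5 days of dsRNA, given as a z-score per plate; higher means more secretion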", "reading the numbers": "z-score: higher = more reporter secreted into medium", "note": "The screen tested about 23,000 reagents; below is a random part of those with a known target gene and a result. 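Reduced-secretion tags in replicate 1 do not always agree with the z-scores; no criterion for assigning the tags was given.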 A plus sign joins genes that one reagent is predicted to hit. Further read-outs or replicates are left out here. No sequences are given here. The record does not give: the amount of reagent."}
{"predicted target":"ProRS-m (Prolyl-tRNA synthetase, mitochondrial)","dsRNA":"DRSC08261","z-score, replicate 1":0.38}
{"predicted target":"CkIIalpha-i1 (CKII-alpha subunit interactor-1)","dsRNA":"DRSC11115","z-score, replicate 1":0.56}
{"predicted target":"Cyp9b1 (Cytochrome P450 9b1)","dsRNA":"DRSC07389","z-score, replicate 1":0.36}
{"predicted target":"CG18223","dsRNA":"DRSC10306","z-score, replicate 1":-4.66}
{"predicted target":"Grx1t (Glutaredoxin 1, testis-specific)","dsRNA":"DRSC04530","z-score, replicate 1":-0.16}
{"predicted target":"Slob (Slowpoke binding protein)","dsRNA":"DRSC02296","z-score, replicate 1":0.47}
{"predicted target":"Slob (Slowpoke binding protein)","dsRNA":"DRSC03436","z-score, replicate 1":0.23}
{"predicted target":"CG15820","dsRNA":"DRSC08480","z-score, replicate 1":0.18}
{"predicted target":"CG4101","dsRNA":"DRSC10400","z-score, replicate 1":-0.17}
{"predicted target":"TwdlZ (TweedleZ)","dsRNA":"DRSC19154","z-score, replicate 1":-0.02}
{"predicted target":"trp (transient receptor potential)","dsRNA":"DRSC17088","z-score, replicate 1":-0.15}
{"predicted target":"Set","dsRNA":"DRSC16861","z-score, replicate 1":0.36}
{"predicted target":"CG15252","dsRNA":"DRSC17981","z-score, replicate 1":0.4}
{"predicted target":"Dic61B (Dynein intermediate chain at 61B)","dsRNA":"DRSC08588","z-score, replicate 1":0}
{"predicted target":"CG2614","dsRNA":"DRSC02711","z-score, replicate 1":0.64}
{"predicted target":"Or94b (Odorant receptor 94b)","dsRNA":"DRSC16773","z-score, replicate 1":0.22}
{"predicted target":"emp (epithelial membrane protein)","dsRNA":"DRSC04019","z-score, replicate 1":0.03}
{"predicted target":"emp (epithelial membrane protein)","dsRNA":"DRSC04683","z-score, replicate 1":0.29}
{"predicted target":"dally (division abnormally delayed)","dsRNA":"DRSC08954","z-score, replicate 1":0.23}
{"predicted target":"dally (division abnormally delayed)","dsRNA":"DRSC11338","z-score, replicate 1":0.37}
{"predicted target":"CR33315 (pseudo)","dsRNA":"DRSC22947","z-score, replicate 1":-0.52}
{"predicted target":"CG17325 + CG42305","dsRNA":"DRSC02602","z-score, replicate 1":0.13}
{"predicted target":"Dcp-1 (Death caspase-1)","dsRNA":"DRSC04609","z-score, replicate 1":0.11}
{"predicted target":"CG32354","dsRNA":"DRSC10763","z-score, replicate 1":0.17}
{"predicted target":"CG32354","dsRNA":"DRSC10775","z-score, replicate 1":0.39}
{"predicted target":"CG32354","dsRNA":"DRSC21919","z-score, replicate 1":0.44}
{"predicted target":"beg (bad egg)","dsRNA":"DRSC10923","z-score, replicate 1":0.18}
{"predicted target":"Pak3","dsRNA":"DRSC15017","z-score, replicate 1":0.12}
{"predicted target":"Takl2 (Tak1-like 2)","dsRNA":"DRSC15650","z-score, replicate 1":0.29}
{"predicted target":"CheB42c (Chemosensory protein B 42c)","dsRNA":"DRSC04972","z-score, replicate 1":0.19}
{"predicted target":"tum (tumbleweed)","dsRNA":"DRSC07575","z-score, replicate 1":-0.49}
{"predicted target":"CG34367","dsRNA":"DRSC02238","z-score, replicate 1":-0.03}
{"predicted target":"CG34367","dsRNA":"DRSC02850","z-score, replicate 1":0.15}
{"predicted target":"Alp5 (Alkaline phosphatase 5)","dsRNA":"DRSC14269","z-score, replicate 1":0.31}
{"predicted target":"ImpL1 (Ecdysone-inducible gene L1)","dsRNA":"DRSC11197","z-score, replicate 1":0.16}
{"predicted target":"bru1 (bruno 1)","dsRNA":"DRSC01234","z-score, replicate 1":-1.43}
{"predicted target":"bru1 (bruno 1)","dsRNA":"DRSC01236","z-score, replicate 1":-1.69}
{"predicted target":"bru1 (bruno 1)","dsRNA":"DRSC01237","z-score, replicate 1":0.36}
{"predicted target":"bru1 (bruno 1)","dsRNA":"DRSC01238","z-score, replicate 1":0.28}
{"predicted target":"bru1 (bruno 1)","dsRNA":"DRSC03485","z-score, replicate 1":0.17}
